Experimental data reported in patent publication EP1881007A1.
Results are given in words; binding and its absence hold for the method and conditions named. In cells and extracts the contact can be indirect. Some results given as binding are weak or reduced against the parent protein; the word gives no strength. Where a sequence is shown, tags or fusion partners need not be part of it.

Columns and labels:
[1] = target: T1, IKK2 (tagged, expressed in HeLa cells) (UniProt O14920); test: co-immunoprecipitation from transfected HeLa cells, Western blot
T1 sequence (looked up): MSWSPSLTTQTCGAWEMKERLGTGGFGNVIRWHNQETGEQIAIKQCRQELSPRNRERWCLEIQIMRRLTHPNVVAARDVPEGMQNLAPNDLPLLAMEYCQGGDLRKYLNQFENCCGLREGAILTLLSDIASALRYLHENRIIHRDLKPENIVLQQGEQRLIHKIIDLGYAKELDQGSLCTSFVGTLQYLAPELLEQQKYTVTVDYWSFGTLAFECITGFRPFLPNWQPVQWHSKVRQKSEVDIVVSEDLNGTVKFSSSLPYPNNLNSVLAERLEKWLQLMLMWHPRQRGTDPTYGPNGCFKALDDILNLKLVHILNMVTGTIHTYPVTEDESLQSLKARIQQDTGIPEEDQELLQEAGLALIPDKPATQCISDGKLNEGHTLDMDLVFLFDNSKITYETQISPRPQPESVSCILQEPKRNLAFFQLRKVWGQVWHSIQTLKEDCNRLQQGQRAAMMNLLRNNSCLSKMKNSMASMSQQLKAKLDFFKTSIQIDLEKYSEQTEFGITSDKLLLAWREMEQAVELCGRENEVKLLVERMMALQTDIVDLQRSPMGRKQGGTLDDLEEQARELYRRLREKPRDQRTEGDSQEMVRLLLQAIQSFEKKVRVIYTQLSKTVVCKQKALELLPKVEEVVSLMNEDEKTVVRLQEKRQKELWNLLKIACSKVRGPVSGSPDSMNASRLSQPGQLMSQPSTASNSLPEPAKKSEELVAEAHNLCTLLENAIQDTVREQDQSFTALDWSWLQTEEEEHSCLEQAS

[2] = target: T1, IKK2 (tagged, expressed in HeLa cells); test: yeast two hybrid and co-immunoprecipitation

binding [1]: binds
binding [2]: binds
B1: IKK2-55 polypeptide (tagged, expressed in HeLa cells) (protein, not shown: small tags and cut ends)
chain: MSEVKSRKKSGPKGAPAAEPGKRSEGGKTPVARSSGGGGWADPRTCLSLLSLGTCLGLAWFVFQQSEKFAKVENQYQLLKLETNEFQQLQSKISLISEKLESTESILQEATSSMSLMTQFEQEVSNLQDIMHDIQNNEEVLTQRMQSLNEKFQNITDFWKRSLEEMNINTDIFKSEAKHIHSQVTVQINSAEQEIKLLTERLKDLEDSTLRNIRTVKRQEEEDLLRVEEQLGSDTKAIEKLEEEQHALFARDEDLTNKLSDYEPKVEECKTHLPTIESAIHSVLRVSQDLIETEKKMEDLTMQMFNMEDDMLKAVSEIMEMQKTLEGIQYDNSILKMQNELDILKEKVHDFIAYSSTGEKGTLKEYNIENKGIGGDF
